Data reported in article PMC7968666, “The pharmacokinetics and drug-drug interactions of ivermectin in Aedes aegypti mosquitoes” (PLoS Pathogens, 2021).
Values joined by “and” are separate entries in the source; they are usually repeats but may differ in a detail not shown here. Equal values may be shown once. Further values from the same series stand in other lists.

Assay: Pharmacokinetic and drug-drug interaction studies in blood-fed mosquitoes (concentration-time courses, population PK modelling)
Conditions: IVM (0.1 µg/ml) in human blood, Batch 4, individual mosquitoes, listed as IVM

CCC(C)C1OC2(CCC1C)CC1CC(CC=C(C)C(OC3CC(OC)C(OC4CC(OC)C(O)C(C)O4)C(C)O3)C(C)C=CC=C3COC4C(O)C(C)=CC(C(=O)O1)C34O)O2 (centres unmarked) [ivermectin]
Ivermectin concentration in single mosquito (48 h post feeding): 0.003 ng/mg msq (4×) and 0.059 ng/mg msq and 0.062 ng/mg msq and 0.024 ng/mg msq and 0.018 ng/mg msq (2×) and 0.012 ng/mg msq and 0.026 ng/mg msq and 0.035 ng/mg msq and 0.057 ng/mg msq and 0.009 ng/mg msq and 0.022 ng/mg msq and 0.032 ng/mg msq and 0.039 ng/mg msq and 0.002 ng/mg msq and 0.054 ng/mg msq and 0.045 ng/mg msq | Ivermectin concentration in single mosquito (72 h post feeding): 0.007 ng/mg msq (2×) and 0.005 ng/mg msq (4×) and 0.009 ng/mg msq and 0.006 ng/mg msq (2×) and 0.003 ng/mg msq (7×) and 0.002 ng/mg msq (3×) and 0.004 ng/mg msq
